Assay results reported in the supplement of paper PMC12819154, “High-throughput peptide-centric local stability assay extends protein–ligand identification to membrane proteins, tissues and bacteria” (Nature Structural & Molecular Biology, 2025).
This is one part of the list. Most entries show no effect beyond the scatter of the controls.

The chains behind the UniProt entries cited, without tags or fusion partners. Where a name states a change or a piece, a line headed by the entry shows the natural chain unless it says otherwise.
UniProt P05060: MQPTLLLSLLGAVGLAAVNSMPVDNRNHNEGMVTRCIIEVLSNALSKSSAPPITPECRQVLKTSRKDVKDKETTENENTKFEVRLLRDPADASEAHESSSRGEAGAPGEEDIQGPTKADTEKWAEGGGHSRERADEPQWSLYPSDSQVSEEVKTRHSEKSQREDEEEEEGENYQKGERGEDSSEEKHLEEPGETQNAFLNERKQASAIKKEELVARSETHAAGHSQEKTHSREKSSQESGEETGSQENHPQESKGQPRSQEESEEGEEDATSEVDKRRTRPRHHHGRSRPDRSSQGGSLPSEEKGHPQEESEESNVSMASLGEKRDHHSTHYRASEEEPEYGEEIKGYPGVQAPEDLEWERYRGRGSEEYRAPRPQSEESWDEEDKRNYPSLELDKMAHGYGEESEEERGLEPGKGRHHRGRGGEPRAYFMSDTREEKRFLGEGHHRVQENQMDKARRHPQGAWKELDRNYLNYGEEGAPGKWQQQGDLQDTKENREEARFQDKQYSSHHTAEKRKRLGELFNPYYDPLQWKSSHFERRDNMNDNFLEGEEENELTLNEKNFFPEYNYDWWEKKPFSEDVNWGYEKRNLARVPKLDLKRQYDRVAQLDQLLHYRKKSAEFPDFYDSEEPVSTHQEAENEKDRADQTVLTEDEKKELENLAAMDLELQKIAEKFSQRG
UniProt P02792: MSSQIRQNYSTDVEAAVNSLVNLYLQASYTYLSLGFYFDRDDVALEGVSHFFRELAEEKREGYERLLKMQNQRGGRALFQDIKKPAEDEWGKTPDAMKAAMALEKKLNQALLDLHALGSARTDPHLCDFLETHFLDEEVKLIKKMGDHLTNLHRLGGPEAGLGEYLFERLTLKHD
UniProt P14174: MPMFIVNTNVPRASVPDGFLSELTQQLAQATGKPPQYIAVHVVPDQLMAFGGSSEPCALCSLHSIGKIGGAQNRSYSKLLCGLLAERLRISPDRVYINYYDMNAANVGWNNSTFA
UniProt P07737, whole entry: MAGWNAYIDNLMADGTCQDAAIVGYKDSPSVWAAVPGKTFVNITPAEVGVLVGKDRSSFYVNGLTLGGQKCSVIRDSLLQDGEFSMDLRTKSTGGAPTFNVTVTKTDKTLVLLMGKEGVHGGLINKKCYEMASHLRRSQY
UniProt P00966: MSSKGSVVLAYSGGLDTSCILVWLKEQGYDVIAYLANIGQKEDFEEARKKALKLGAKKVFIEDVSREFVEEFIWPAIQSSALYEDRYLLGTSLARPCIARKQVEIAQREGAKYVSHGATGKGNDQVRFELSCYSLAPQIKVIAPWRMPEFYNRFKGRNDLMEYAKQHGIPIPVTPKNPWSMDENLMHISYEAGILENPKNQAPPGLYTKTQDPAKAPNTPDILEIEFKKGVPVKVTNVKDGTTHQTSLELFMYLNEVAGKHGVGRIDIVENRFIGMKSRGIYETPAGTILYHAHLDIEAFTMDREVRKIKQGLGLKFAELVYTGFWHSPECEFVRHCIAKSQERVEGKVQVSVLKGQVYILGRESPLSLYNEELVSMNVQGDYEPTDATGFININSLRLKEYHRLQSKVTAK
UniProt P09234, whole entry: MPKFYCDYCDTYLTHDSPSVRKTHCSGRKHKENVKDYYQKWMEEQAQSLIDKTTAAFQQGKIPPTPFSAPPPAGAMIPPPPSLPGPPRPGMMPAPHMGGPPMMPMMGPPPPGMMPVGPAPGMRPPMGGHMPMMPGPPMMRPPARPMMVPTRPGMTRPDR
UniProt P07311: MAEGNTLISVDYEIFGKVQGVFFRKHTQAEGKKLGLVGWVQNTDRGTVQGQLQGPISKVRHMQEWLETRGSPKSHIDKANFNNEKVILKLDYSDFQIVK
UniProt P08047, whole entry: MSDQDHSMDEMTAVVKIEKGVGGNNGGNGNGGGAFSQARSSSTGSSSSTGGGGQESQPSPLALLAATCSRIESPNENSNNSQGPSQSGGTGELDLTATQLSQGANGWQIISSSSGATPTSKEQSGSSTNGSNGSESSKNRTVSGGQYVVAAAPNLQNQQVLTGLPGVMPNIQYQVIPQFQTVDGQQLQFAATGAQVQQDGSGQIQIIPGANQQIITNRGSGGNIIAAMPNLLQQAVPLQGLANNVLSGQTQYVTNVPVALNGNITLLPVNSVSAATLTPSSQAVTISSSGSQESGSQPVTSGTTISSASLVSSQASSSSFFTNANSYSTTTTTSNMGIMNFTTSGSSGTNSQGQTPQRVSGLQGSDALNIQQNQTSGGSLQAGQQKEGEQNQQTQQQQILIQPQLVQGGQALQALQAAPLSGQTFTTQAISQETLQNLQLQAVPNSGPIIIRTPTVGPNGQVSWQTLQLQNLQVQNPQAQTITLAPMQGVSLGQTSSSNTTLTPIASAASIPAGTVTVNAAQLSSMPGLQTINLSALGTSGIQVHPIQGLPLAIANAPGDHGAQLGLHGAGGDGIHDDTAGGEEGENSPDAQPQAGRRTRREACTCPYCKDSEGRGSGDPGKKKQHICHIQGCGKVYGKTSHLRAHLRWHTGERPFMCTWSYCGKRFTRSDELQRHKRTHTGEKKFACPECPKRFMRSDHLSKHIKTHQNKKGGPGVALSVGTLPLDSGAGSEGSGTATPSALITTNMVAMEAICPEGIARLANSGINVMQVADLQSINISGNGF
UniProt P07437, whole entry: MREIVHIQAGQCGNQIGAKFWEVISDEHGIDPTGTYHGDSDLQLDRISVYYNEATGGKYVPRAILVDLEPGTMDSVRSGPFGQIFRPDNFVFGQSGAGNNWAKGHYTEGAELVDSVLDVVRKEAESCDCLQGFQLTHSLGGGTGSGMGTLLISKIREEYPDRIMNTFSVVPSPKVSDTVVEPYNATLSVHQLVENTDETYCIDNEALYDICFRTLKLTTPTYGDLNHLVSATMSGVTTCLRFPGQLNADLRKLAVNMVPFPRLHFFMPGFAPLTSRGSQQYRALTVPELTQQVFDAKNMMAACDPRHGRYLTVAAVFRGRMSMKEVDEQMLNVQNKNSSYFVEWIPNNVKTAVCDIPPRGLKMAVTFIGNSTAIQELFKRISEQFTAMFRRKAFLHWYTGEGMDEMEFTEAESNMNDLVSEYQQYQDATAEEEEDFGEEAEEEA
UniProt P02042: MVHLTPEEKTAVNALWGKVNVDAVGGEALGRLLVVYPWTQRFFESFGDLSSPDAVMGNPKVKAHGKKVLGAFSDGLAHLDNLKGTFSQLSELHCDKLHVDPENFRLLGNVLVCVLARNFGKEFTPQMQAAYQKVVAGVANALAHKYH
UniProt P12694: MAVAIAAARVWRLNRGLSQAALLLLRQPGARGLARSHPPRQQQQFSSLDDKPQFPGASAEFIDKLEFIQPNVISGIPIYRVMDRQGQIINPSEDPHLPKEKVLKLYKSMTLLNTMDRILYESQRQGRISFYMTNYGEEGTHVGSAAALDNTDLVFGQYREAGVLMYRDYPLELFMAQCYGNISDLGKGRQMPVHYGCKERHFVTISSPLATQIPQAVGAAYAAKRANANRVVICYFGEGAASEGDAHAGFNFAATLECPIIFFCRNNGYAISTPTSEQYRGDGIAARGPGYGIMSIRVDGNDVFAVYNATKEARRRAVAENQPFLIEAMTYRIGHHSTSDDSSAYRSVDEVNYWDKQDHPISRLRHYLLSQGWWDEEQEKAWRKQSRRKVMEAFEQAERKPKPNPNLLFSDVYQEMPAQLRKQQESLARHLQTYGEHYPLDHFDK
UniProt P11831: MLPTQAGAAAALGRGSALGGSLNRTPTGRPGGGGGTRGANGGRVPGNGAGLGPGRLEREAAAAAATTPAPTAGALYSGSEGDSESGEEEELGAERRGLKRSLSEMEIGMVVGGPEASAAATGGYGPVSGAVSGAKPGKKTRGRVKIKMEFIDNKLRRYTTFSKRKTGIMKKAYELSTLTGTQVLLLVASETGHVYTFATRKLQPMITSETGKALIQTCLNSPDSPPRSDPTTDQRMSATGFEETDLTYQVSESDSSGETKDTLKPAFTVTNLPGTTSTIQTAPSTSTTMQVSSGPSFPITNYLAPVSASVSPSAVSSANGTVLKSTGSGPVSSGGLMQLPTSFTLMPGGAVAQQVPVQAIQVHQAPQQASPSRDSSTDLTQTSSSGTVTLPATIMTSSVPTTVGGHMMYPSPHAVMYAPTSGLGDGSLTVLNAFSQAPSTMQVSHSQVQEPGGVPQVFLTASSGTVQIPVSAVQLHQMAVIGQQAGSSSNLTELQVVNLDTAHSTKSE
UniProt P05976, whole entry: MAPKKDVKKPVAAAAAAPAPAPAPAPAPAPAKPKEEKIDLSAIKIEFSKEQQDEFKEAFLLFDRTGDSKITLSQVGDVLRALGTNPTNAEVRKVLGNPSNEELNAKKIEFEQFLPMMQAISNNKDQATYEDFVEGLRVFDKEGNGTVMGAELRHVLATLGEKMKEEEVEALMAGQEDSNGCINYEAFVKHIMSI
UniProt P08123: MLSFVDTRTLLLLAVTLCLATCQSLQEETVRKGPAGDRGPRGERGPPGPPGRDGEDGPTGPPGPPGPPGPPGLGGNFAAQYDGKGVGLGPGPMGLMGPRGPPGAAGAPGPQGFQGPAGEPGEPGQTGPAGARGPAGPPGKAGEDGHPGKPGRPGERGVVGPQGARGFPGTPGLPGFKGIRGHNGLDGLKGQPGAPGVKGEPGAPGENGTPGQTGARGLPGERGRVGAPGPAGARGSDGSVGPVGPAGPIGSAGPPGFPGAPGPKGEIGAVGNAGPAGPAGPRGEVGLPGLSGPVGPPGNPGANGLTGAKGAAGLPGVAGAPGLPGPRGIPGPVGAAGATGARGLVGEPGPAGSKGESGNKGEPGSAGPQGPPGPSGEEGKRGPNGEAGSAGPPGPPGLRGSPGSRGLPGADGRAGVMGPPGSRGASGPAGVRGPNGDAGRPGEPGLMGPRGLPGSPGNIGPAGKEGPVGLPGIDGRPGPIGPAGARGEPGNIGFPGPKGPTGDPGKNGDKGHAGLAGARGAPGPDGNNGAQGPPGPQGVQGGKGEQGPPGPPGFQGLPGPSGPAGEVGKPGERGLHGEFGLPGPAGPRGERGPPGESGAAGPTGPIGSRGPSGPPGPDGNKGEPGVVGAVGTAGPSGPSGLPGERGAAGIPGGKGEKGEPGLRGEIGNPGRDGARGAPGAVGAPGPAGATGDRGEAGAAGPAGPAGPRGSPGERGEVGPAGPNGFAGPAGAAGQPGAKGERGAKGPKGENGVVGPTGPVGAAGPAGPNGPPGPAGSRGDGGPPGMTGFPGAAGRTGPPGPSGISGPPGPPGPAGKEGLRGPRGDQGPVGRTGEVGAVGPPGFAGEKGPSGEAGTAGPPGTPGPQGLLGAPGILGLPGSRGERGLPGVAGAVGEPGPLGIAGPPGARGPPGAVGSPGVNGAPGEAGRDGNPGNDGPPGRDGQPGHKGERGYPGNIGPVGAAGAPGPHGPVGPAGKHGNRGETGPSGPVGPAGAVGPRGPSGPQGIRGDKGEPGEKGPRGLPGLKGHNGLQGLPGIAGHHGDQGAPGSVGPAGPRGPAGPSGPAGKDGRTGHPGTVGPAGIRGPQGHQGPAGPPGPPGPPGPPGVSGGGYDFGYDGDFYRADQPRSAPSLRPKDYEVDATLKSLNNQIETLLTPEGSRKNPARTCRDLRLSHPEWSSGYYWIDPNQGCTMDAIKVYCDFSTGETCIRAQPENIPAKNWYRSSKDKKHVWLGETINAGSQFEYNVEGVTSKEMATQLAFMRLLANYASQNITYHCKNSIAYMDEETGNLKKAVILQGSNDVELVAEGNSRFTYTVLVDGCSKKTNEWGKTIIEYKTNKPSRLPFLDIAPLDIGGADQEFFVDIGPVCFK
UniProt P05387, whole entry: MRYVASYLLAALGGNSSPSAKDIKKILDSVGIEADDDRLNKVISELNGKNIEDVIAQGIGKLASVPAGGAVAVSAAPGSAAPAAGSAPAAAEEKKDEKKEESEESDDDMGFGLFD
UniProt P05783: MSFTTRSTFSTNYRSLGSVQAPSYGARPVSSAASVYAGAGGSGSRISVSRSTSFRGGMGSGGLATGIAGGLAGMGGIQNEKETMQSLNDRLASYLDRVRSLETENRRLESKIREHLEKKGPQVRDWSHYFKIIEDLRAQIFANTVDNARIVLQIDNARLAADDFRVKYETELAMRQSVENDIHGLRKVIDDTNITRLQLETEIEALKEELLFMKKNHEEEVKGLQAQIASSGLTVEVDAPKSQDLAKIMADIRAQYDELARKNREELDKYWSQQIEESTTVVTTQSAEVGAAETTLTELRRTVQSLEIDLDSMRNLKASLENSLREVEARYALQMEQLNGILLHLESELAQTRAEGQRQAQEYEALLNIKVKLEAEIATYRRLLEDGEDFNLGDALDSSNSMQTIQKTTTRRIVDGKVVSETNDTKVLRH
UniProt P0CG13, whole entry: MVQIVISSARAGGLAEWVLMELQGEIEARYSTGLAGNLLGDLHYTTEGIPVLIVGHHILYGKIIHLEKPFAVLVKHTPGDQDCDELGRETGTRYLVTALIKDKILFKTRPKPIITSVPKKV
UniProt P10599: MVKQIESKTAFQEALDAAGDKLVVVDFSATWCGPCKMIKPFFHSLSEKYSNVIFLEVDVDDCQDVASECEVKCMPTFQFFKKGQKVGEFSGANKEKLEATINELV

These targets were tested with Cc1nc(Nc2ncc(C(=O)Nc3c(C)cccc3Cl)s2)cc(N2CCN(CCO)CC2)n1 [dasatinib] (assay: log2 fold change of tryptic peptide abundance, ligand vs vehicle (limited proteolysis) (log2 ratio); higher = more trypsin-susceptible (destabilized)). Conditions: ligand concentration: 5 uM; sample: K562 cleared lysate.
Target “ATP1A1 (peptide sequence: DKYEPAAVSEQGDKK, peptide start residue: 8) (UniProt P05023)” has a log2 fold change of 0.0844. “UniProt P05060 (peptide sequence: YRGRGSEEYR, peptide start residue: 362)” was tested, and the log2 fold change was -0.0169. “FTL (peptide sequence: LNQALLDLHALGSAR, peptide start residue: 107) (UniProt P02792)” gave a log2 fold change of -0.0469. In the case of “MIF (peptide sequence: PMFIVNTNVPR, peptide start residue: 2) (UniProt P14174)”, the log2 fold change is reported as -0.0562. “PFN1 (peptide sequence: CYEMASHLRR, peptide start residue: 128) (UniProt P07737)” was tested, and the log2 fold change was 0.165. “ASS1 (peptide sequence: NQAPPGLYTK, peptide start residue: 200) (UniProt P00966)” showed a log2 fold change of 0.216. For “SNRPB2 (peptide sequence: HDIAFVEFENDGQAGAAR, peptide start residue: 187) (UniProt P08579)”, the log2 fold change was 0.461. In the case of “TOP2A (peptide sequence: FTVETASR, peptide start residue: 177) (UniProt P11388)”, the log2 fold change is reported as 0.203. “EPRS (peptide sequence: AKIDMSSNNGCMRDPTLYR, peptide start residue: 340) (UniProt P07814)” gave a log2 fold change of 0.165. “SNRPC (peptide sequence: KHKENVK, peptide start residue: 29) (UniProt P09234)” gave a log2 fold change of -0.443. “ACYP1 (peptide sequence: GTVQGQLQGPISK, peptide start residue: 46) (UniProt P07311)” was tested, and the log2 fold change was 0.32. Target “SP1 (peptide sequence: QHICHIQGCGK, peptide start residue: 625) (UniProt P08047)” has a log2 fold change of -0.0955. In the case of “UniProt P07437 (peptide sequence: FPGQLNADLRK, peptide start residue: 242)”, the log2 fold change is reported as -0.29. “HBD (peptide sequence: VNVDAVGGEALGR, peptide start residue: 19) (UniProt P02042)” gave a log2 fold change of 0.0196. For “BCKDHA (peptide sequence: KVMEAFEQAER, peptide start residue: 389) (UniProt P12694)”, the log2 fold change was -1.24. With “IFI30 (peptide sequence: GMQLMHANAQR, peptide start residue: 184) (UniProt P13284)” the log2 fold change was 0.393. For “SRF (peptide sequence: IKMEFIDNK, peptide start residue: 146) (UniProt P11831)”, the log2 fold change was 0.125. With “MYL1 (peptide sequence: HVLATLGEK, peptide start residue: 157) (UniProt P05976)” the log2 fold change was -0.154. “BCR (peptide sequence: EFYDGLFPR, peptide start residue: 559) (UniProt P11274)” was tested, and the log2 fold change was -0.394. “NR2F6 (peptide sequence: AQYPSQPQR, peptide start residue: 341) (UniProt P10588)” gave a log2 fold change of -0.189. Work on “COL1A2 (peptide sequence: GPAGPSGPAGK, peptide start residue: 1054) (UniProt P08123)” yielded a log2 fold change of 0.142. Work on “SLC4A2 (peptide sequence: SYGEEDFEYHR, peptide start residue: 65) (UniProt P04920)” yielded a log2 fold change of 0.266. Work on “RPLP2 (peptide sequence: ILDSVGIEADDDRLNKVISELNGK, peptide start residue: 26) (UniProt P05387)” yielded a log2 fold change of 0.627. For “UniProt P08048 (peptide sequence: SSNSSDLKR, peptide start residue: 642)”, the log2 fold change was 0.442. “KRT18 (peptide sequence: KNHEEEVK, peptide start residue: 215) (UniProt P05783)” was tested, and the log2 fold change was -0.349. “UniProt P0CG13 (peptide sequence: TRPKPIITSVPK, peptide start residue: 108)” gave a log2 fold change of 0.388. Work on “GPI (peptide sequence: MIPCDFLIPVQTQHPIRK, peptide start residue: 401) (UniProt P06744)” yielded a log2 fold change of -0.252. With “SPTB (peptide sequence: WISAMEDQLR, peptide start residue: 1394) (UniProt P11277)” the log2 fold change was 0.0639. Target “TXN (peptide sequence: VGEFSGANKEK, peptide start residue: 86) (UniProt P10599)” has a log2 fold change of -0.0893.
